These are yes or no findings as the source states them, for the method shown. In cells and extracts the contact can be indirect. For some of these results: Binding calls can cover weak binding; strength is not graded here. For some of these results: Tags and fused reporters may be left off the sequences shown.
What was measured:
[1] = molecular target: HA-Gli2(P1-6A), overexpressed in HEK293T (UniProt Q0VGT2); assay: co-IP; co-IP with HA-Gli2(P1-6A), Supplementary Fig. S4a; cells, beads and constructs not told in the text shown
[2] = molecular target: T1, HA-Lkb1 (mouse) (UniProt Q9WTK7); assay: co-IP; HEK293T cells co-transfected with EGFP-tagged Sec3/5/8 and HA-Lkb1; beads not stated; western blot
T1 sequence: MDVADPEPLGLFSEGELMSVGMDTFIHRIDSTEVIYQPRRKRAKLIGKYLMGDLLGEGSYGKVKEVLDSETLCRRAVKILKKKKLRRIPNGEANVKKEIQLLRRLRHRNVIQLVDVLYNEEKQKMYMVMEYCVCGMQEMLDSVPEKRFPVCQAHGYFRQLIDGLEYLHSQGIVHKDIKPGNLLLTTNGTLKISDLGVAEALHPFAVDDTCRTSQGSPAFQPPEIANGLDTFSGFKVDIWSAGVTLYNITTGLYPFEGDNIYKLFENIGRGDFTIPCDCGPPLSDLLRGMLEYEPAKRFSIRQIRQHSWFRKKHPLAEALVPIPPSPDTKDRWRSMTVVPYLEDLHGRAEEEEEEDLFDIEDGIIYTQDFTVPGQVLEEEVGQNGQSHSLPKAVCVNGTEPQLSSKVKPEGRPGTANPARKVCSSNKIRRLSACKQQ

Protein sequences, listed by entry. Tags and fused reporters are not part of them. Lines headed by an entry give the natural chain unless they say otherwise; changes in a name come on top.
UniProt Q0VGT2: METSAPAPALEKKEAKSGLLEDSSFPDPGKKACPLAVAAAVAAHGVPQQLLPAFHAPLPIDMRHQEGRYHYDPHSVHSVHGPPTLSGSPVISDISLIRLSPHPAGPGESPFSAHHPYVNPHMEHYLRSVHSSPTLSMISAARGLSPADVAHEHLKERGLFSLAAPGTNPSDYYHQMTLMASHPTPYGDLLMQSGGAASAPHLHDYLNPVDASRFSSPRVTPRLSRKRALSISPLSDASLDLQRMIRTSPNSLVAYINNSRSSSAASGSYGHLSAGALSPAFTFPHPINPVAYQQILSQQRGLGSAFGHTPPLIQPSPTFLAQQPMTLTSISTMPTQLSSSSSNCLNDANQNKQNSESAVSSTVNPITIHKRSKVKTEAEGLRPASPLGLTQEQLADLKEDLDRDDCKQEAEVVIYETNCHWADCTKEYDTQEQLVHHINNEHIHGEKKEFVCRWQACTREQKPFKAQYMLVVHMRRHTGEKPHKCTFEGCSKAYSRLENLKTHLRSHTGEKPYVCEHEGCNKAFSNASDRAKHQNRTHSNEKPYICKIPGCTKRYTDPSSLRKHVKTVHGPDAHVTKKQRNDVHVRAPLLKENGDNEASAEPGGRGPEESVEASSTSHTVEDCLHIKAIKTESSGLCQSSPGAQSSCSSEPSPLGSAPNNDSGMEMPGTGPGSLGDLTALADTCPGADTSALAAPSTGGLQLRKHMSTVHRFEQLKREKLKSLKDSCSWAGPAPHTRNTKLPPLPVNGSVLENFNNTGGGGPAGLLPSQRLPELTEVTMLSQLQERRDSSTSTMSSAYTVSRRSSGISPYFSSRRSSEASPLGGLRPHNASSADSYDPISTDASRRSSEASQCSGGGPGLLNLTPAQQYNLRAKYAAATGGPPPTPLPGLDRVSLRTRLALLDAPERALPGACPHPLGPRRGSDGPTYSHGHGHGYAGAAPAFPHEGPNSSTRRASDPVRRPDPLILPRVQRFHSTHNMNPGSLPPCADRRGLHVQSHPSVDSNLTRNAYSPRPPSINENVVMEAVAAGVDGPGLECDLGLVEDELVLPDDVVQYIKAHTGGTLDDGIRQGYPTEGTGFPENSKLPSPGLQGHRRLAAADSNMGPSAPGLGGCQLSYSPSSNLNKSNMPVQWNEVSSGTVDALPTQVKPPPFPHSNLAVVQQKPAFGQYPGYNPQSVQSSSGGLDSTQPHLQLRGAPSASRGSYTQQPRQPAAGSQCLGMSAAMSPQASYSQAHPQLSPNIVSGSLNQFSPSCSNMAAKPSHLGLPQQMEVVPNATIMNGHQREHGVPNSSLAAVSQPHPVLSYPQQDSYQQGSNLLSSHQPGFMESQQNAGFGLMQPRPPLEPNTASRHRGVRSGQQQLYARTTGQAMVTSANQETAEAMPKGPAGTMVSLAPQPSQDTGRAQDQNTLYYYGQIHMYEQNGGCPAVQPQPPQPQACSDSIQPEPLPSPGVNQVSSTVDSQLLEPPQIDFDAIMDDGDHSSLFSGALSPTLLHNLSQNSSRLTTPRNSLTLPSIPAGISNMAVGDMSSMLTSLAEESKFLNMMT
UniProt Q61025: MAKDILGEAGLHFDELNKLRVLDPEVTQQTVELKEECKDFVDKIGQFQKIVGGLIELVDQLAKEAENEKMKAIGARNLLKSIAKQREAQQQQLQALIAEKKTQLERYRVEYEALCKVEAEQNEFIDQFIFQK

Row | Substance | binding [1] | binding [2]
1 | IFT20 (from UniProt Q61025 1-132) | no binding | 
2 | EGFP-tagged Sec3 |  | binds
3 | EGFP-tagged Sec8 |  | binds
4 | EGFP-tagged Sec5 |  | binds

— publication PMC10879184
